{"source": "patent US7378401B2", "about": "“Use of Fosfluridine Tidoxil (FT) for the treatment of intraepithelial proliferative diseases” (Heidelberg Pharma GmbH, priority 2006, dated 2008)", "origin": "cited, not measured here", "details": "in vivo; cited from earlier work", "note": "Some results were stated once for a whole list of compounds, not compound by compound.", "data": [{"smiles": "O=c1[nH]c(=O)n([C@@H]2O[C@H](CO)[C@@H](O)[C@H]2O)cc1F", "note": "[Example 5-FUrd, 5-Fluorouridine, reference compound]", "values": [{"measurement": "biological half-life", "value": "less than 30 minutes"}]}]}
